For at least one entry, the source does not settle the construct or the ends of the probe. At least one result comes from cells or an extract, where the contact may be indirect. For part of these data: No signal at the amounts used counts as a negative.
Tests used:
[1] = test system: SpiHIF-1alpha (SpiHIFα) (Stylophora pistillata); assay: competition with a labelled probe; conditions: 10 mM Tris pH 7.5, 50 mM KCl, 5 mM MgCl2, 1 mM DTT, 0.05% NP-40, 2.5% glycerol, 1 ug poly(dI-dC), 3 ug nuclear extract, 2 nM probe, 23 C, 20 min, protein in an extract, unlabeled as competitor
[2] = test system: SpiHIF-1alpha (SpiHIFα) (Stylophora pistillata); assay: EMSA supershift; conditions: nuclear extract from dark-exposed coral, anti-SpiHIFα, poly(dI-dC); 10 mM Tris pH 7.5, 50 mM KCl, 5 mM MgCl2, 1 mM DTT, 0.05% NP-40, 2.5% glycerol, 1 ug poly(dI-dC), 3 ug nuclear extract, 2 nM probe, 23 C, 20 min; protein in an extract; label: 5'-biotin (probe), unlabeled as competitor

Sequence | binding result ([1]; 200-fold excess unlabeled W18 against biotin-W18, prevented the supershift, label: 5'-biotin (probe)) | binding result [2] | binding result ([1]; 200-fold excess unlabeled M18 against biotin-W18, did not compete or prevent the supershift)
GCCCTACGTGCTGTCTCA (double strand) [W18 (wild-type HRE)] | binds | binds | 
GCCCTAAAAGCTGTCTCA (double strand) [M18 (mutant HRE)] |  |  | no binding

Reference: PMC5695583
